From patent US11999746B2, “Compounds” (GlaxoSmithKline Intellectual Property Development Limited, priority 2014, dated 2024)
Some entries share one result that the patent states for a list of compounds.

Biological target: Recombinant human PLA2 VIIB (Novel Serine Dependent Lipase, NSDL) (Homo sapiens, UniProt Q99487)
Experiment: (2a) PLA2 VIIB assay (PED6 substrate)
Type: biochemical
Conditions: Examples 1-9, 11-105, 107-193, 203-259 and 413-430 were tested here

Selectivity between human recombinant Lp-PLA2 and PLA2 VIIB, at least 100 fold:
O=c1nc(OCc2cc(F)c(F)c(F)c2)cc2n1C[C@H]1CCCCN21 [Example E54, (R)-3-((3,4,5-Trifluorobenzyl)oxy)-6,7,8,9,9a,10-hexahydro-1H-pyrido[1′,2′:3,4]imidazo[1,2-c]pyrimidin-1-one]
O=c1nc(OCc2ccc(F)cc2F)cc2n1C[C@H]1CCCCN21 [Example E55, (R)-3-((2,4-Difluorobenzyl)oxy)-6,7,8,9,9a,10-hexahydro-1H-pyrido[1′,2′:3,4]imidazo[1,2-c] pyrimidin-1-one]
O=c1nc(OCc2cccc(F)c2F)cc2n1C[C@H]1CCCCN21 [Example E56, (R)-3-((2,3-Difluorobenzyl)oxy)-6,7,8,9,9a,10-hexahydro-1H-pyrido[1′,2′:3,4]imidazo[1,2-c] pyrimidin-1-one]
O=c1nc(OCc2ccc(F)cc2F)cc2n1C[C@@H]1CCCCN21 [Example E57, (S)-3-((2,4-Difluorobenzyl)oxy)-6,7,8,9,9a,10-hexahydro-1H-pyrido[1′,2′:3,4]imidazo[1,2-c] pyrimidin-1-one]
O=c1nc(OCc2cccc(F)c2F)cc2n1C[C@@H]1CCCCN21 [Example E58, (S)-3-((2,3-Difluorobenzyl)oxy)-6,7,8,9,9a,10-hexahydro-1H-pyrido[1′,2′:3,4]imidazo[1,2-c] pyrimidin-1-one]
O=c1nc(OCc2cc(F)c(F)cc2F)cc2n1C[C@@H]1CCCCN21 [Example E59, (S)-3-((2,4,5-Trifluorobenzyl)oxy)-6,7,8,9,9a,10-hexahydro-1H-pyrido[1′,2′:3,4]imidazo[1,2-c]pyrimidin-1-one]
O=c1nc(OCc2cccc(F)c2)cc2n1C[C@@H]1CCCCN21 [Example E60, (S)-3-((3-Fluorobenzyl)oxy)-6,7,8,9,9a,10-hexahydro-1H-pyrido[1′,2′:3,4]imidazo[1,2-c] pyrimidin-1-one]
CN(Cc1ccc(F)cc1F)c1cc2n(c(=O)n1)C[C@@H]1CCCCN21 [Example E61, (S)-3-((2,4-Difluorobenzyl)(methyl)amino)-6,7,8,9,9a,10-hexahydro-1H-pyrido[1′,2′:3,4] imidazo[1,2-c]pyrimidin-1-one]
O=c1nc(OCc2cc(F)c(OC3(CCF)CC3)c(F)c2)cc2n1C[C@H]1CCCCN21 [Example E62, (R)-3-((3,5-Difluoro-4-(1-(2-fluoroethyl)cyclopropoxy)benzyl)oxy)-6,7,8,9,9a,10-hexahydro-1H-pyrido[1′,2′:3,4]imidazo[1,2-c]pyrimidin-1-one]
Cn1cc(Oc2c(F)cc(COc3cc4n(c(=O)n3)CC3CCCN43)cc2F)cn1 (centres unmarked) [Example E63, 3-((3,5-Difluoro-4-((1-methyl-1H-pyrazol-4-yl)oxy)benzyl)oxy)-7,8,8a,9-tetrahydro pyrrolo[1′,2′:3, 4] imidazo[1,2-c] pyrimidin-1(6H)-one]
CCn1cc(Oc2c(F)cc(COc3cc4n(c(=O)n3)CC3CCCN43)cc2F)cn1 (centres unmarked) [Example E64, 3-((4-((1-Ethyl-1H-pyrazol-4-yl)oxy)-3,5-difluorobenzyl)oxy)-7,8,8a, 9-tetrahydropyrrolo[1′,2′:3,4]imidazo[1,2-c]pyrimidin-1(6H)-one]
CC(C)n1cc(Oc2c(F)cc(COc3cc4n(c(=O)n3)CC3CCCN43)cc2F)cn1 (centres unmarked) [Example E65, 3-((3,5-Difluoro-4-((1-isopropyl-1H-pyrazol-4-yl)oxy)benzyl)oxy)-7,8,8a, 9-tetrahydro pyrrolo[1′,2′:3,4]imidazo[1,2-c]pyrimidin-1(6H)-one]
Cn1cc(Oc2c(F)cc(COc3cc4n(c(=O)n3)C[C@H]3CCCN43)cc2F)cn1 [Example E66, (R)-3-((3,5-difluoro-4-((1-methyl-1H-pyrazol-4-yl)oxy)benzyl)oxy)-7,8,8a, 9-tetrahydro pyrrolo[1′,2′:3,4]imidazo[1,2-c]pyrimidin-1(6H)-one]
Cn1cc(Oc2ccc(COc3cc4n(c(=O)n3)C[C@H]3CCCN43)cc2F)cn1 [Example E68, (R)-3-((3-fluoro-4-((1-methyl-1H-pyrazol-4-yl)oxy)benzyl)oxy)-7,8,8a, 9-tetrahydro pyrrolo[1′,2′:3,4]imidazo[1,2-c]pyrimidin-1(6H)-one]
O=c1nc(OCc2ccc(Oc3cnc(C(F)(F)F)nc3)c(F)c2)cc2n1C[C@H]1CCCN21 [Example E69, (R)-3-((3-fluoro-4-((2-(trifluoromethyl)pyrimidin-5-yl)oxy)benzyl)oxy)-7,8,8a, 9-tetra hydropyrrolo[1′,2′:3,4]imidazo[1,2-c]pyrimidin-1(6H)-one]
O=c1nc(OCc2cc(F)c(F)c(F)c2)cc2n1C[C@H]1CCCN21 [Example E70, (R)-3-((3,4,5-trifluorobenzyl)oxy)-7,8,8a,9-tetrahydropyrrolo[1′,2′:3,4]imidazo[1,2-c] pyrimidin-1(6H)-one]
O=c1nc(OCc2cc(F)c(Oc3ccnc(C(F)(F)F)c3)c(F)c2)cc2n1C[C@@H]1CCCN21 [Example E71, (S)-3-((3,5-difluoro-4-((2-(trifluoromethyl)pyridin-4-yl)oxy)benzyl)oxy)-7,8,8a, 9-tetra hydropyrrolo[1′,2′:3,4]imidazo[1,2-c]pyrimidin-1(6H)-one]
O=c1nc(OCc2ccc(Oc3cnc(C(F)(F)F)nc3)c(F)c2)cc2n1C[C@@H]1CCCN21 [Example E72, (S)-3-((3-fluoro-4-((2-(trifluoromethyl)pyrimidin-5-yl)oxy)benzyl)oxy)-7,8,8a, 9-tetra hydropyrrolo[1′,2′:3,4]imidazo[1,2-c]pyrimidin-1(6H)-one]
O=c1nc(OCc2cc(F)c(Oc3ccc(F)c(F)c3)c(F)c2)cc2n1C[C@@H]1CCCN21 [Example E74, (S)-3-((4-(3,4-difluorophenoxy)-3,5-difluorobenzyl)oxy)-7,8,8a,9-tetrahydropyrrolo[1′,2′:3,4]imidazo[1,2-c]pyrimidin-1(6H)-one]
O=c1nc(OCc2cc(F)c(Oc3ccnc(C(F)(F)F)c3)c(F)c2)cc2n1CC1CCCN21 (centres unmarked) [Example E75, 3-((3,5-difluoro-4-((2-(trifluoromethyl)pyridin-4-yl)oxy)benzyl)oxy)-7,8,8a, 9-tetrahydro pyrrolo[1′, 2′:3, 4]imidazo[1,2-c]pyrimidin-1(6H)-one]
